Measurements as given in paper PMC3397946, “Identification and Characterization of the Cognate Anti-Sigma Factor and Specific Promoter Elements of a T. tengcongensis ECF Sigma Factor”.

What was measured:
[1] = biological target: T1, Tt-RpoE1 (Thermoanaerobacter tengcongensis MB4T) (UniProt Q8RCT7); test: EMSA; settings: 50 mM Tris-HCl pH 8.0, 10 mM MgAc2, 30 mM NaCl, 1 mM DTT, 5% glycerol, 30 ug/ml BSA, 0.5 mM EDTA, 1 ug poly(dI-dC), 20 fmol probe in 20 ul, 25 C, 20 min, recombinant protein, residues 1-162, protein details: His (pET28a)
T1 sequence (looked up): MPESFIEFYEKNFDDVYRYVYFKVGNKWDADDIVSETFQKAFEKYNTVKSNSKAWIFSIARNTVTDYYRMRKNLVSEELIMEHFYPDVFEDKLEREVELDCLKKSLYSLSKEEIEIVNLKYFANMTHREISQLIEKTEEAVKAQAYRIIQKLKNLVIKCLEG

[2] = biological target: T2, Tt-RpoE1 D66A (Thermoanaerobacter tengcongensis MB4T) (UniProt Q8RCT7); test: EMSA; settings: 5 uM protein, 50 mM Tris-HCl pH 8.0, 10 mM MgAc2, 30 mM NaCl, 1 mM DTT, 5% glycerol, 30 ug/ml BSA, 0.5 mM EDTA, 1 ug poly(dI-dC), 20 fmol probe in 20 ul, 25 C, 20 min, recombinant protein, residues 1-162, protein details: His (pET28a), label: 5'-32P top strand, letters put together from the description
T2 sequence (looked up): T1 sequence (looked up) with D66A

[3] = 5 uM protein, label: 5'-32P top strand
[4] = 5 uM protein, almost abolished, label: 5'-32P top strand, letters put together from the description
[5] = 5 uM protein, almost abolished, label: 5'-32P top strand

Sequence: GTTTACCTTTTGTGTAGATTTTCGTCTATAAAGGTG / GACGAAAATCTACACAAAAGGTAAAC [D-5-M2 (-35TG-34 to GT)]
- binding result [1, 3]: binds more weakly

Sequence: TGTTACCTTTTGTGTAGATTTTCGTTTATAAAGGTG / CGAAAATCTACACAAAAGGTAACA [D-5-b4c/-12 (-10C to T)]
- binding result ([2]; defect not cured): binds more weakly
- binding result [1, 4]: binds more weakly

Sequence: TGTTACCTTTTGTGTAGATTTTCGCCTATAAAGGTG / CGAAAATCTACACAAAAGGTAACA [D-5-B3T/-12 (-11T to C)]
- binding result ([2]; defect not cured): binds more weakly
- binding result [1, 4]: binds more weakly

Sequence: TTTTGTGTAGATTTTCGTCTATAAAGGT / GACGAAAATCTACACAAAA [D-12/-10]
- binding result [1, 5]: binds more weakly

Sequence: TGGTACCTTTTGTGTAGATTTTCGTCTATAAAGGTG / GACGAAAATCTACACAAAAGGTACCA [D-5-3t (-33T to G)]
- binding result [1, 3]: binds more weakly

Sequence: GGTATTGTTACCTTTTGTGTAGATTTTCGTCTATAAAGGTG (double strand) [T+1/B+1]
- binding result ([1]; weak, only at 25 uM protein, label: 5'-32P top strand): binds more weakly

Sequence: TGTTACCTTTTGTGTAGATTTTTTTTTATAAAGGTG / AAAAAATCTACACAAAAGGTAACA [D-5-BM2 (-13C,-12G,-10C to T)]
- binding result [1, 3]: binds more weakly

Sequence: TTTTACCTTTTGTGTAGATTTTCGTCTATAAAGGTG / GACGAAAATCTACACAAAAGGTAAAA [D-5-2G (-34G to T)]
- binding result [1, 3]: binds more weakly

Sequence: GGTATTGTTACCTTTTGTGTAGATTTTCGTCTATAAAGGTG [ssTop (T+1)]
- binding result ([1]; 5 uM protein, label: 5'-32P, single-stranded DNA): binds more weakly

Sequence: GTGGACCTTTTGTGTAGATTTTCGTCTATAAAGGTG / GACGAAAATCTACACAAAAGGTCCAC [D-5-M3 (-35TGTT-32 to GTGG)]
- binding result [1, 3]: binds more weakly

Sequence: TGTTGCCTTTTGTGTAGATTTTCGTCTATAAAGGTG / GACGAAAATCTACACAAAAGGCAACA [D-5-5a (-31A to G)]
- binding result [1, 3]: binds more weakly

Sequence: GGTATTGTTACCTTTTGTGTAGATTTTCGTCTATAAAGGTG / GAAAATCTACACAAAAGGTAACAATACC [T+1/B-13]
- binding result [1, 3]: binds more weakly

Sequence: TGTTACCTTTTGTGTAGATTTTCTTCTATAAAGGTG / AGAAAATCTACACAAAAGGTAACA [D-5-B2G (-12G to T)]
- binding result [1, 5]: binds more weakly

Sequence: TGGGACCTTTTGTGTAGATTTTCGTCTATAAAGGTG / GACGAAAATCTACACAAAAGGTCCCA [D-5-M1 (-33TT-32 to GG)]
- binding result [1, 3]: binds more weakly

Sequence: TGTTACCTTTTGTGTAGATTTTCGTCTATAAAGGTG / CGAAAATCTACACAAAAGGTAACA [D-5/-12]
- binding result ([2]; strongly decreased): binds more weakly

Sequence: ACCTTTTGTGTAGATTTTCGTCTATAAAGGTG / GACGAAAATCTACACAAAAGGT [D-9/-10]
- binding result ([1]; 5 uM protein, strong decrease, label: 5'-32P top strand): binds more weakly

Sequence: CACCTTTATAGACGAAAATCTACACAAAAGGTAACAATACC [ssBot]
- binding result ([1]; 5 uM protein, much weaker band, label: 32P, single-stranded DNA): binds more weakly

Sequence: TGTGGCCTTTTGTGTAGATTTTCGTCTATAAAGGTG / GACGAAAATCTACACAAAAGGCCACA [D-5-M4 (-32TA-31 to GG)]
- binding result ([1]; 5 uM protein, stronger decrease than other doubles, label: 5'-32P top strand): binds more weakly

Sequence: TGTTACCTTTTGTGTAGATTTTTTTCTATAAAGGTG / AAAAAATCTACACAAAAGGTAACA [D-5-BM1 (-13CG-12 to TT)]
- binding result [1, 3]: binds more weakly

Positions count from the first letter of the chain named. The comparison behind a weaker result is the experiment's own reference, which may not be listed here. Protein sequences can lack the tags named with them. For part of these data: The exact form of at least one protein or probe is not confirmed. For part of these data: At least one verdict was read from the data and is not stated in words by the source.
